This continues a long series; more values of the same kind are listed elsewhere.
Legend:
Assay type in all cases: cell-based
Conditions in all cases: U-87MG ATCC
[1] = Inhibition of RTK/PI3K/AKT/mTOR signaling in human U87 cells assessed as down regulation of PTPRA gene expression at cytotoxic IC50 measured after 48 hrs relative to control
[2] = Inhibition of RTK/PI3K/AKT/mTOR signaling in human U87 cells assessed as down regulation of BUD31 gene expression at cytotoxic IC50 measured after 48 hrs relative to control
[3] = Inhibition of RTK/PI3K/AKT/mTOR signaling in human U87 cells assessed as up regulation of DNAJA3 gene expression at cytotoxic IC50 measured after 48 hrs relative to control
[4] = Inhibition of RTK/PI3K/AKT/mTOR signaling in human U87 cells assessed as up regulation of PTP4A2 gene expression at cytotoxic IC50 measured after 48 hrs relative to control
[5] = Inhibition of RTK/PI3K/AKT/mTOR signaling in human U87 cells assessed as down regulation of KLHL18 gene expression at cytotoxic IC50 measured after 48 hrs relative to control
[6] = Inhibition of RTK/PI3K/AKT/mTOR signaling in human U87 cells assessed as down regulation of TNFAIP1 gene expression at cytotoxic IC50 measured after 48 hrs relative to control
[7] = Inhibition of RTK/PI3K/AKT/mTOR signaling in human U87 cells assessed as down regulation of CCDC117 gene expression at cytotoxic IC50 measured after 48 hrs relative to control
[8] = Inhibition of RTK/PI3K/AKT/mTOR signaling in human U87 cells assessed as up regulation of pleckstrin homology like domain family A member 1 gene expression at cytotoxic IC50 measured after 48 hrs relative to control
[9] = Inhibition of RTK/PI3K/AKT/mTOR signaling in human U87 cells assessed as down regulation of KCTD5 gene expression at cytotoxic IC50 measured after 48 hrs relative to control
[10] = Inhibition of RTK/PI3K/AKT/mTOR signaling in human U87 cells assessed as up regulation of EEF1B2 gene expression at cytotoxic IC50 measured after 48 hrs relative to control
[11] = Inhibition of RTK/PI3K/AKT/mTOR signaling in human U87 cells assessed as up regulation of zinc finger MYM-type containing 3 gene expression at cytotoxic IC50 measured after 48 hrs relative to control
[12] = Inhibition of RTK/PI3K/AKT/mTOR signaling in human U87 cells assessed as up regulation of LARS gene expression at cytotoxic IC50 measured after 48 hrs relative to control
[13] = Inhibition of RTK/PI3K/AKT/mTOR signaling in human U87 cells assessed as down regulation of TUBB gene expression at cytotoxic IC50 measured after 48 hrs relative to control
[14] = Inhibition of RTK/PI3K/AKT/mTOR signaling in human U87 cells assessed as up regulation of multimerin 2 gene expression at cytotoxic IC50 measured after 48 hrs relative to control
[15] = Inhibition of RTK/PI3K/AKT/mTOR signaling in human U87 cells assessed as up regulation of NCK associated protein 5 like gene expression at cytotoxic IC50 measured after 48 hrs relative to control
[16] = Inhibition of RTK/PI3K/AKT/mTOR signaling in human U87 cells assessed as up regulation of C8orf58 gene expression at cytotoxic IC50 measured after 48 hrs relative to control
[17] = Inhibition of RTK/PI3K/AKT/mTOR signaling in human U87 cells assessed as up regulation of RNA polymerase I subunit B gene expression at cytotoxic IC50 measured after 48 hrs relative to control
[18] = Inhibition of RTK/PI3K/AKT/mTOR signaling in human U87 cells assessed as up regulation of RNA polymerase I subunit C gene expression at cytotoxic IC50 measured after 48 hrs relative to control
[19] = Inhibition of RTK/PI3K/AKT/mTOR signaling in human U87 cells assessed as down regulation of RELT gene expression at cytotoxic IC50 measured after 48 hrs relative to control
[20] = Inhibition of RTK/PI3K/AKT/mTOR signaling in human U87 cells assessed as down regulation of NAGK gene expression at cytotoxic IC50 measured after 48 hrs relative to control
[21] = Inhibition of RTK/PI3K/AKT/mTOR signaling in human U87 cells assessed as up regulation of aryl hydrocarbon receptor interacting protein gene expression at cytotoxic IC50 measured after 48 hrs relative to control
[22] = Inhibition of RTK/PI3K/AKT/mTOR signaling in human U87 cells assessed as up regulation of solute carrier family 39 member 14 gene expression at cytotoxic IC50 measured after 48 hrs relative to control
[23] = Inhibition of RTK/PI3K/AKT/mTOR signaling in human U87 cells assessed as down regulation of CCNT1 gene expression at cytotoxic IC50 measured after 48 hrs relative to control
[24] = Inhibition of RTK/PI3K/AKT/mTOR signaling in human U87 cells assessed as up regulation of WD repeat domain 43 gene expression at cytotoxic IC50 measured after 48 hrs relative to control
[25] = Inhibition of RTK/PI3K/AKT/mTOR signaling in human U87 cells assessed as down regulation of MFSD6 gene expression at cytotoxic IC50 measured after 48 hrs relative to control
[26] = Inhibition of RTK/PI3K/AKT/mTOR signaling in human U87 cells assessed as down regulation of CACYBP gene expression at cytotoxic IC50 measured after 48 hrs relative to control
[27] = Inhibition of RTK/PI3K/AKT/mTOR signaling in human U87 cells assessed as up regulation of leucine rich repeat containing 3 gene expression at cytotoxic IC50 measured after 48 hrs relative to control
[28] = Inhibition of RTK/PI3K/AKT/mTOR signaling in human U87 cells assessed as down regulation of C11orf24 gene expression at cytotoxic IC50 measured after 48 hrs relative to control
[29] = Inhibition of RTK/PI3K/AKT/mTOR signaling in human U87 cells assessed as up regulation of EPCAM gene expression at cytotoxic IC50 measured after 48 hrs relative to control
[30] = Inhibition of RTK/PI3K/AKT/mTOR signaling in human U87 cells assessed as down regulation of DRAP1 gene expression at cytotoxic IC50 measured after 48 hrs relative to control
[31] = Inhibition of RTK/PI3K/AKT/mTOR signaling in human U87 cells assessed as down regulation of GRB2 gene expression at cytotoxic IC50 measured after 48 hrs relative to control
[32] = Inhibition of RTK/PI3K/AKT/mTOR signaling in human U87 cells assessed as down regulation of EXT2 gene expression at cytotoxic IC50 measured after 48 hrs relative to control

SMILES: CC(=O)C(=NNc1ccccc1C#N)C(C)=O
- log2FC [1]: -0.47
- log2FC [2]: -0.579
- log2FC [3]: 0.498
- log2FC [4]: 0.609
- log2FC [5]: -0.74
- log2FC [6]: -1.07
- log2FC [7]: -1.03
- log2FC [8]: 1.29
- log2FC [9]: -0.755
- log2FC [10]: 0.56
- log2FC [11]: 1.32
- log2FC [12]: 0.57
- log2FC [13]: -0.562
- log2FC [14]: 1.21
- log2FC [15]: 0.867
- log2FC [16]: 2.43
- log2FC [17]: 0.846
- log2FC [18]: 0.686
- log2FC [19]: -1.31
- log2FC [20]: -0.983
- log2FC [21]: 0.747
- log2FC [22]: 0.749
- log2FC [23]: -0.62
- log2FC [24]: 1.01
- log2FC [25]: -1.26
- log2FC [26]: -0.583
- log2FC [27]: 1.31
- log2FC [28]: -0.756
- log2FC [29]: 0.454
- log2FC [30]: -0.816
- log2FC [31]: -0.423
- log2FC [32]: -0.8

Source: ChEMBL document CHEMBL4316593 (Eur J Med Chem, 2019)
